Measured values: the supplement of paper PMC9254222
The full ranking holds about 1,100 compounds; the median of “Wnt reporter firefly/Renilla luciferase ratio relative to plate median” is about 1.1, and the highest 2% start at about 1.6. This is a selection; strong and weak results do not stand in their true shares.

Tested on: HEK293T (UBE3A T485A transfected, BAR Wnt reporter)
Assay: Wnt reporter firefly/Renilla luciferase ratio relative to plate median (fold (linear ratio)); higher = more Wnt/beta-catenin reporter activation
Details: 24 h
Method in brief: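 Wnt activity (firefly/Renilla ratio) and cell health (raw Renilla) were read with Dual-Glo luciferase and median-centred plate by plate. HEK293T cells, at 4500 cells/well in white 384-well plates with DMEM plus 10% FBS at 37°C and 5% CO2, carried a transfected BAR firefly luciferase Wnt reporter, TK-Renilla and an expression plasmid. The chemicals were applied by robot at 0.01–100 uM for 24 h, beginning four hours after transfection, and results were averaged across four biological replicates.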

Row | Compound | Wnt reporter firefly/Renilla luciferase ratio (concentration: 0.01 uM) | Wnt reporter firefly/Renilla luciferase ratio (concentration: 0.1 uM) | Wnt reporter firefly/Renilla luciferase ratio (concentration: 1 uM) | Wnt reporter firefly/Renilla luciferase ratio (concentration: 10 uM) | Wnt reporter firefly/Renilla luciferase ratio (concentration: 100 uM)
1 | CCOP(=O)(SC(C)CC)N1CCSC1=O (configuration not stated) [Fosthiazate] | 0.839 | 0.761 | 0.922 | 1.5 | 0.772
2 | CCSC(=O)N1CCCCCC1 [Molinate] | 1.29 | 1.49 | 1.13 | 0.973 | 1.18
3 | CC(C)(C)C(O)C(Oc1ccc(Cl)cc1)n1cncn1 (configuration not stated) [Triadimenol] | 0.889 | 1.01 | 1.09 | 0.935 | 0.403
4 | CC(C)[C@H](C(=O)O[C@H](C#N)c1cccc(Oc2ccccc2)c1)c1ccc(Cl)cc1 [Esfenvalerate] | 1.08 | 0.96 | 1.13 | 1.12 | 0.54
5 | CS(=O)(=O)NC(=O)c1cc(Oc2ccc(C(F)(F)F)cc2Cl)ccc1[N+](=O)[O-] [Fomesafen] |  | 1.07 | 1.19 | 1.15 | 0.896
6 | Clc1ccccc1Cl [1,2-Dichlorobenzene] |  | 0.904 | 1.01 | 0.88 | 1.62
7 | COc1cc(Cl)c(OC)cc1Cl [Chloroneb] | 0.936 | 1.33 | 1.12 | 1.01 | 1.54
8 | COc1cc(OC)nc(Sc2cccc(Cl)c2C(=O)[O-])n1.[Na+] [Pyrithiobac-sodium] | 1.46 | 1.11 | 1.11 | 1.25 | 1.32
9 | CC#Cc1cc(C)nc(Nc2ccccc2)n1 [Mepanipyrim] |  | 1.04 | 1.06 | 1.12 | 0.702
10 | CCOC(=O)CC(SP(=O)(OC)OC)C(=O)OCC (configuration not stated) [Malaoxon] | 1.22 | 0.981 | 1.07 | 1.22 | 1.22
11 | CC(C)(C)c1ccc(CSc2cnn(C(C)(C)C)c(=O)c2Cl)cc1 [Pyridaben] | 1.21 | 0.978 | 0.29 | 0.305 | 0.218
12 | O=[N+]([O-])c1ccc(Oc2ccc(Cl)cc2Cl)cc1 [Nitrofen] |  | 1.04 | 0.882 | 1.01 | 1.28
13 | Cc1cc(O)ccc1Cl [4-Chloro-3-methylphenol] |  | 0.988 | 0.799 | 0.778 | 0.698
14 | CCOP(=S)(OCC)OC(Cl)C(Cl)(Cl)Cl (configuration not stated) [Chlorethoxyfos] | 1.08 | 1.35 | 1.17 | 1.02 | 1.11
15 | ClC(Cl)(Cl)c1ccccc1 [Benzotrichloride] |  | 1.29 | 1.13 | 1.23 | 1.52
16 | CN(C)C(=S)SSC(=S)N(C)C [Thiram] | 1.62 |  |  |  | 
17 | CCC12COCN1COC2 [5-Ethyl-1-aza-3,7-dioxabicyclo[3.3.0]octane] |  | 1.03 | 1.12 | 0.987 | 1.47

Taken from above.
COc1cc(OC)nc(Sc2cccc(Cl)c2C(=O)[O-])n1.[Na+] [Pyrithiobac-sodium] | Wnt reporter firefly/Renilla luciferase ratio (concentration: 100 uM): 1.32
CCOP(=O)(SC(C)CC)N1CCSC1=O (configuration not stated) [Fosthiazate] | Wnt reporter firefly/Renilla luciferase ratio (concentration: 0.1 uM): 0.761

Following part

Row | Compound | Wnt reporter firefly/Renilla luciferase ratio (concentration: 0.01 uM) | Wnt reporter firefly/Renilla luciferase ratio (concentration: 0.1 uM) | Wnt reporter firefly/Renilla luciferase ratio (concentration: 1 uM) | Wnt reporter firefly/Renilla luciferase ratio (concentration: 10 uM) | Wnt reporter firefly/Renilla luciferase ratio (concentration: 100 uM)
18 | C[C@]12CCC(=O)C=C1CC[C@@H]1[C@@H]2CC[C@@]2(C)[C@H]1CC[C@]2(C)O [17-Methyltestosterone] |  | 1.2 | 0.889 | 0.965 | 0.571
19 | c1nc[nH]n1 [1H-1,2,4-Triazole] |  | 1.01 | 1.02 | 1.16 | 1.07
20 | Clc1ccc(C(Cl)(Cl)Cl)cc1 [4-Chlorobenzotrichloride] |  |  |  |  | 2.38
21 | CNC(=O)Oc1ccccc1OC(C)C [Propoxur] | 1 | 0.968 | 1.02 | 1.11 | 1.19
22 | CNC(=O)Oc1cccc(N=CN(C)C)c1.Cl [Formetanate hydrochloride] | 0.82 | 0.828 | 0.919 | 1.14 | 1.42
23 | CCCOC/C(=N\c1ccc(Cl)cc1C(F)(F)F)n1ccnc1 [Triflumizole] | 1.29 | 1.65 | 1.53 | 1.91 | 1.72
24 | CSC(=O)c1c(C(F)F)nc(C(F)(F)F)c(C(=O)SC)c1CC(C)C [Dithiopyr] | 1.47 | 1.19 | 1.03 | 1.02 | 0.64
25 | CCC(=O)Nc1ccc(Cl)c(Cl)c1 [Propanil] |  | 1.71 |  |  | 
26 | CCCCC(CC)COC(=O)CCCCC(=O)OCC(CC)CCCC (configuration not stated) [Di(2-ethylhexyl) adipate] |  | 1.32 | 1.11 | 1.37 | 1.42
27 | CCN(CC)N=O [N-Nitrosodiethylamine] |  | 1.12 | 1.13 | 1.27 | 1.82
28 | O=C1C2CC=CCC2C(=O)N1SC(Cl)(Cl)Cl (configuration not stated) [Captan] | 1.45 | 1.27 | 1.15 | 1.19 | 
29 | CN=C=S [Methyl isothiocyanate] | 1.37 | 1.17 | 1.1 | 1.11 | 1.5
30 | CSC(C)(C)C=NO [Aldicarb oxime] |  | 1.13 | 1.13 | 1.01 | 1.34
31 | CN(C)c1ccc(C(=O)c2ccc(N(C)C)cc2)cc1 [Michler's ketone] |  | 0.875 | 0.878 | 0.65 | 0.132
32 | CC1=C2C[C@H]3[C@@H](CC=C4C[C@@H](O)CC[C@@]43C)[C@@H]2CC[C@]12O[C@@H]1C[C@H](C)CN[C@H]1[C@H]2C [Cyclopamine] |  | 1.01 | 0.989 | 0.989 | 0.518
33 | CC(C)(OOC(C)(C)c1ccccc1)c1ccccc1 [Dicumyl peroxide] |  | 1.15 | 0.998 | 0.968 | 1.39
